Test results reported in the supplement of paper PMC12819154, “High-throughput peptide-centric local stability assay extends protein–ligand identification to membrane proteins, tissues and bacteria” (Nature Structural & Molecular Biology, 2025).
The list shows a part of the results. Small differences around the control level are noise.

Sequences of proteins named here, by UniProt entry; tags and fusion partners are left off. A change or cut given only in a name is not applied to a line headed by its entry.
UniProt O95817, whole entry: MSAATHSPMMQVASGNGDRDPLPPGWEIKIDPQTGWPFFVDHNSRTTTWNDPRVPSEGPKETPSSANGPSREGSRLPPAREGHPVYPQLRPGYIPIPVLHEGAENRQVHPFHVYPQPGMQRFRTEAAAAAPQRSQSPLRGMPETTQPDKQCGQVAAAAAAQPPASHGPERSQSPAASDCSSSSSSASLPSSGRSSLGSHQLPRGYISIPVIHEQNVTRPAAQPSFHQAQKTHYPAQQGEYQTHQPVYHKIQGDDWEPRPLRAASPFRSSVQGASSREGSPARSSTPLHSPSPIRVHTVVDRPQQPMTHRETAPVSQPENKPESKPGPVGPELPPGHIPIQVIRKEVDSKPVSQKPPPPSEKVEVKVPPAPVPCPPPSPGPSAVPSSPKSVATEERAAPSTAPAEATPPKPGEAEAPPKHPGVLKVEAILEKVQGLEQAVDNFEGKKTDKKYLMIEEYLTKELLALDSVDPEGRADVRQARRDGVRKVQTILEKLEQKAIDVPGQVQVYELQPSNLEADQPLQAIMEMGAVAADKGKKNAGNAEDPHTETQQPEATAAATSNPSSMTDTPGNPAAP
UniProt O75529: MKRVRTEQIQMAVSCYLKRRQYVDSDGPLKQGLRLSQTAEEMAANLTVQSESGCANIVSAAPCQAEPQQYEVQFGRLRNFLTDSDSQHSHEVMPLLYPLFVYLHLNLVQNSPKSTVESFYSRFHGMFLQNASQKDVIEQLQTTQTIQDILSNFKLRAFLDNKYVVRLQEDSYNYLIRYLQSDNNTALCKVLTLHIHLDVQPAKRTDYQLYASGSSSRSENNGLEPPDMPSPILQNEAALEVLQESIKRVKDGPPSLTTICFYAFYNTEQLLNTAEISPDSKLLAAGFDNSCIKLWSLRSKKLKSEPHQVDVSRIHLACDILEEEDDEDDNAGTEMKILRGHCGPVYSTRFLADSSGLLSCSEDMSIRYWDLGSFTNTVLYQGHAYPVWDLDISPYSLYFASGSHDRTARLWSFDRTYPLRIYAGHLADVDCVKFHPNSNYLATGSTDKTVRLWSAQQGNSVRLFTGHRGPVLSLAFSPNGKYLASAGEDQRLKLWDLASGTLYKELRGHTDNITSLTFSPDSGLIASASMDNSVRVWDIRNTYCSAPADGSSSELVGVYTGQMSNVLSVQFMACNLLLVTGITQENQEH
UniProt O95630, whole entry: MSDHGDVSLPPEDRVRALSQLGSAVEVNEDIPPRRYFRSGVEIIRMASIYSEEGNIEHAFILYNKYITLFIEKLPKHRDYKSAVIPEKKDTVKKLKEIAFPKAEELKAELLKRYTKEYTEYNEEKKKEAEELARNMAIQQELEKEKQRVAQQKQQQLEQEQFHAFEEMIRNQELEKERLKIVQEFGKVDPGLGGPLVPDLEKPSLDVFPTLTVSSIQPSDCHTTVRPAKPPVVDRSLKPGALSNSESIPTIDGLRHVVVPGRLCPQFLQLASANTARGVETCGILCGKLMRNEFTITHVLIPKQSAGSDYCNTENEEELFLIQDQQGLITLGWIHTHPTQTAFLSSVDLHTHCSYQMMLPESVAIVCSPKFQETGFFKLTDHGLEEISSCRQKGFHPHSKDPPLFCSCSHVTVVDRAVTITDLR
UniProt O75460: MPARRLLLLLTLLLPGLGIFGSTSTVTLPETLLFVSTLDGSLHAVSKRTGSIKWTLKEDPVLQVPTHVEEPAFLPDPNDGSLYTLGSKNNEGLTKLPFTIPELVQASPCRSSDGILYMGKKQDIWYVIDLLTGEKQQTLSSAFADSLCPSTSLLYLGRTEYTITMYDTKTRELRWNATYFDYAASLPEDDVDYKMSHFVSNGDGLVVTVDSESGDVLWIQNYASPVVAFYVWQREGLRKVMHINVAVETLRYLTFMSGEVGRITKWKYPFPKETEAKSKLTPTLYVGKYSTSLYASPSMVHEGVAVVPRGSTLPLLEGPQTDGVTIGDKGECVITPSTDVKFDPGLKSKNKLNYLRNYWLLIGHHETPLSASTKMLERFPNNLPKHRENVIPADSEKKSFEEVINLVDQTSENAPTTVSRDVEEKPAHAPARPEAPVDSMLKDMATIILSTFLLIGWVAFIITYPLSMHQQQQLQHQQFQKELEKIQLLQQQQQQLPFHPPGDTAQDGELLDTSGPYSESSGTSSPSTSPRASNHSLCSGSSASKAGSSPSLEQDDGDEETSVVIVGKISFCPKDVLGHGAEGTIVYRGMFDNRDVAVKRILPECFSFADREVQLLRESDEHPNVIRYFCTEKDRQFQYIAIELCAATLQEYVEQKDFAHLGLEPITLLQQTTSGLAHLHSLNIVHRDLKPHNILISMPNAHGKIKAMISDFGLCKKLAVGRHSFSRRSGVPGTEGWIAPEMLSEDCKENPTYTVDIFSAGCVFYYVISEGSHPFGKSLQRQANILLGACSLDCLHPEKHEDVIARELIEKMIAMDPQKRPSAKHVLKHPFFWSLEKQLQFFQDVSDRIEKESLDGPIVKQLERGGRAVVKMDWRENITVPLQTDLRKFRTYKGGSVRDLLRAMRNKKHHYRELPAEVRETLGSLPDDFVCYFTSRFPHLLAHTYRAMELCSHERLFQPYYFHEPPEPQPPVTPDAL
UniProt O75607: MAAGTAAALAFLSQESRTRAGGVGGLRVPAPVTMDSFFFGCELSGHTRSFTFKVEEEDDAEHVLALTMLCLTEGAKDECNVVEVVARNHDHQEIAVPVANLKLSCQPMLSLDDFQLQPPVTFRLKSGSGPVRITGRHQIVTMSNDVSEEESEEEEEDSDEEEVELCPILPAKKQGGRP
UniProt O75563, whole entry, looked up: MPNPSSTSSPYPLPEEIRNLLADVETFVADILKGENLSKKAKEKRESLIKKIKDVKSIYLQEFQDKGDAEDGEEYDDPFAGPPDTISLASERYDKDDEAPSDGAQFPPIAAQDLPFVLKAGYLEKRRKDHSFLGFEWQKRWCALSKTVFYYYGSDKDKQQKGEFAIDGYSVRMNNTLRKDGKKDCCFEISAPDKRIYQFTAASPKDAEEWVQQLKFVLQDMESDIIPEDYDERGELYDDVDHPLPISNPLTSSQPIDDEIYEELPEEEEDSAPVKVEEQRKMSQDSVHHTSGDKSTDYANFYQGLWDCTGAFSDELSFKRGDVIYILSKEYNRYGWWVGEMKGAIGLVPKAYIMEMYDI
UniProt O76003: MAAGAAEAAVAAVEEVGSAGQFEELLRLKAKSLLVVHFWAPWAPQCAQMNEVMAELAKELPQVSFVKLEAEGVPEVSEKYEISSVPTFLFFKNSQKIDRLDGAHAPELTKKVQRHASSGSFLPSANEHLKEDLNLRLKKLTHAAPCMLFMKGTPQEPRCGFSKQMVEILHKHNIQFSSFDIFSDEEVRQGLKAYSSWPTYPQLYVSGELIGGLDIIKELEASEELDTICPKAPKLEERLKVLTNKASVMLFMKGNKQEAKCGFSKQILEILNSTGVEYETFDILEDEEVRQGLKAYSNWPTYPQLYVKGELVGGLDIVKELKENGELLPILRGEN
UniProt O95071: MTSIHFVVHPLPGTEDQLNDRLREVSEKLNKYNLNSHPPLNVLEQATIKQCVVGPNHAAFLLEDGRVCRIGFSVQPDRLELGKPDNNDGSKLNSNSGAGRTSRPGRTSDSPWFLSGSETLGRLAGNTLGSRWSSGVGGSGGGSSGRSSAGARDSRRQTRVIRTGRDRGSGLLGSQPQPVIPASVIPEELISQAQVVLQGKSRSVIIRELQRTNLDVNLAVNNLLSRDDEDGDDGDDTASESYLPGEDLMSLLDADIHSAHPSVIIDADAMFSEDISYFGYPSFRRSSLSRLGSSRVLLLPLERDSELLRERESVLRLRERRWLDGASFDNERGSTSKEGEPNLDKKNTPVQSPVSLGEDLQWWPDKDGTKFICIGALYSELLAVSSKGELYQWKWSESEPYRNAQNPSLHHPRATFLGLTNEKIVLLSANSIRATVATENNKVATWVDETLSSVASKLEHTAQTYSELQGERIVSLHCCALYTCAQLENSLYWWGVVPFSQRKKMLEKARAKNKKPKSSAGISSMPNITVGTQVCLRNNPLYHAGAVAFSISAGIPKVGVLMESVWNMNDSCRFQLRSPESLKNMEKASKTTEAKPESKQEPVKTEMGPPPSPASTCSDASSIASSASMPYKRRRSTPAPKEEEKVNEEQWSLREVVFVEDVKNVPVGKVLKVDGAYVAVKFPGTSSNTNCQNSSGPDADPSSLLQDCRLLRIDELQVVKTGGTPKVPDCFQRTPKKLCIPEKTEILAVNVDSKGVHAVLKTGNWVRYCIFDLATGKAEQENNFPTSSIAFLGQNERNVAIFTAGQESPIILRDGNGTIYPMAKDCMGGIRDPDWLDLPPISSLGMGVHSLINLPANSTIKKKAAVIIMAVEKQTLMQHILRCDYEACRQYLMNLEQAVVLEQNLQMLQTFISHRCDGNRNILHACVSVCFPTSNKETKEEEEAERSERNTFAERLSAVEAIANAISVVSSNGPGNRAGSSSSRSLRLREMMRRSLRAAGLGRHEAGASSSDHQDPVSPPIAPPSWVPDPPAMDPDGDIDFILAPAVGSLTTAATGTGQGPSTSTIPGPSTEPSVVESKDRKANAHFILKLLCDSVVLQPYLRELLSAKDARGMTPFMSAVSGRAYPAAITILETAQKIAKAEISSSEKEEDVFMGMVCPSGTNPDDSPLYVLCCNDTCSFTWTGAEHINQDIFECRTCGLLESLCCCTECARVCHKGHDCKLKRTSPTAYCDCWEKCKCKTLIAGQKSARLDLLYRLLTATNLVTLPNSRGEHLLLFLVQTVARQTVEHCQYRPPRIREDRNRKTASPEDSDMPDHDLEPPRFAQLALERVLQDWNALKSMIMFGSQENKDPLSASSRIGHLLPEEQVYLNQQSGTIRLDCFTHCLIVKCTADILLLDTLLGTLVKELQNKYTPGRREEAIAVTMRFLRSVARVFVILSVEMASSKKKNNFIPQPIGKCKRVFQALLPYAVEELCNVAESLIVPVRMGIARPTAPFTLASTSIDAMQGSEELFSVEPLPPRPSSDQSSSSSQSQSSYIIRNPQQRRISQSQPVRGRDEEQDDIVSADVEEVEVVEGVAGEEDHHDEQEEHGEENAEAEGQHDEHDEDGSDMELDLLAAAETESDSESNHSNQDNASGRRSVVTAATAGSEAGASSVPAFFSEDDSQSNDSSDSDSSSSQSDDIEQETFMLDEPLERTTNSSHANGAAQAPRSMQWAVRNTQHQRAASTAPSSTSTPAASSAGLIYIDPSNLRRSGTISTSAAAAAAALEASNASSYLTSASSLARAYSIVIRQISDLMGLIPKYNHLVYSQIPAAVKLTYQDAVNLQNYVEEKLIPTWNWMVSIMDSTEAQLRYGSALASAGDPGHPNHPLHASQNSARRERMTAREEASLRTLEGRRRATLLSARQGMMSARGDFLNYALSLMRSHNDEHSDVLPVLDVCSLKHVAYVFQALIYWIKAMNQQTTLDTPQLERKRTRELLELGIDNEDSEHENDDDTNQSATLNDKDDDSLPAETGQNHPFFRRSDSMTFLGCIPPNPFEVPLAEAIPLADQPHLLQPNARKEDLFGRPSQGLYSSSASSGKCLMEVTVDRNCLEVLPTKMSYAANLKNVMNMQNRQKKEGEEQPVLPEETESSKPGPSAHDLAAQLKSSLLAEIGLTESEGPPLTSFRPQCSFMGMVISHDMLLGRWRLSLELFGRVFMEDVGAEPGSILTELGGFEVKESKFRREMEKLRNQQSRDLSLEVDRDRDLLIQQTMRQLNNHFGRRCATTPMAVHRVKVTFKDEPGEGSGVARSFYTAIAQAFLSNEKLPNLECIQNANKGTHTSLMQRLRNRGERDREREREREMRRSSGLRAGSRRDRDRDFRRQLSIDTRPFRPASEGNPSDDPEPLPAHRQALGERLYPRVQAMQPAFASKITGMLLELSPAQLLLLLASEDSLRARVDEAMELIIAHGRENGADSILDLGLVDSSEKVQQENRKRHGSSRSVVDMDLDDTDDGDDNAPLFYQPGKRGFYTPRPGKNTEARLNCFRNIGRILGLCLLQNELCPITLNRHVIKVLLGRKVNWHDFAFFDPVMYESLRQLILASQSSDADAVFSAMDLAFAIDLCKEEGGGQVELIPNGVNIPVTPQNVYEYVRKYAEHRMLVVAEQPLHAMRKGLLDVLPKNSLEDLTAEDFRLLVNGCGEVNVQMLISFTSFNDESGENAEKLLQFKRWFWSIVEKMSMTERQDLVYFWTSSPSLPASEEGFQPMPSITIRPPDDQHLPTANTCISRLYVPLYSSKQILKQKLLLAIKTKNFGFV
UniProt O95619, whole entry: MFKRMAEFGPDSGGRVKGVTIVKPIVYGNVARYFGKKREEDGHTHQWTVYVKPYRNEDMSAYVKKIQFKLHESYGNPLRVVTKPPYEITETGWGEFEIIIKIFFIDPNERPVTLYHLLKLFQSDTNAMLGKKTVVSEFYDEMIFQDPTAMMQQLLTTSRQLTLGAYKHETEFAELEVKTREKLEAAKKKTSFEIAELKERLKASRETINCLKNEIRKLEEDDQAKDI

compound: Cc1nc(Nc2ncc(C(=O)Nc3c(C)cccc3Cl)s2)cc(N2CCN(CCO)CC2)n1 [dasatinib]; assay: log2 fold change of tryptic peptide abundance, ligand vs vehicle (limited proteolysis) (log2 ratio); higher = more trypsin-susceptible (destabilized); details: ligand concentration: 5 uM; sample: K562 cleared lysate

Target | log2 fold change
HP (peptide sequence: LPECEAVCGKPK, peptide start residue: 142) (UniProt P00738) | 0.439
BAG3 (peptide sequence: GYISIPVIHEQNVTR, peptide start residue: 204) (UniProt O95817) | 0.169
TAF5L (peptide sequence: VRTEQIQMAVSCYLK, peptide start residue: 4) (UniProt O75529) | -0.186
ATP6AP2 (peptide sequence: ATVMVMVK, peptide start residue: 74) (UniProt O75787) | -0.4
STAMBP (peptide sequence: EYTEYNEEK, peptide start residue: 117) (UniProt O95630) | 0.075
ZWINT (peptide sequence: EAFEQLQAKK, peptide start residue: 133) (UniProt O95229) | -0.668
GOSR1 (peptide sequence: HRDILQDYTHEFHK, peptide start residue: 111) (UniProt O95249) | 0.434
MOCS2 (peptide sequence: LPLSPPLVEDSAFEPSRK, peptide start residue: 17) (UniProt O96007) | 0.887
MTA2 (peptide sequence: QPSLHMSAAAASR, peptide start residue: 215) (UniProt O94776) | 0.21
CDC123 (peptide sequence: SVILPLPQNVK, peptide start residue: 25) (UniProt O75794) | -0.14
HEXIM1 (peptide sequence: VRELELELDR, peptide start residue: 322) (UniProt O94992) | 0.421
UniProt O75460 (peptide sequence: VMHINVAVETLR, peptide start residue: 240) | 0.165
UniProt O95931 (peptide sequence: LVMAYEEKEER, peptide start residue: 53) | -0.0459
GLS (peptide sequence: KCVQSNIVLLTQAFR, peptide start residue: 202) (UniProt O94925) | 0.277
UniProt O95935 (peptide sequence: YVYHSSK, peptide start residue: 201) | -0.273
ASMTL (peptide sequence: VDASACGMER, peptide start residue: 328) (UniProt O95671) | -0.378
NPM3 (peptide sequence: NHDHQEIAVPVANLK, peptide start residue: 88) (UniProt O75607) | -0.0545
SKAP2 (peptide sequence: IYQFTAASPK, peptide start residue: 196) (UniProt O75563) | -0.197
HPRT1 (peptide sequence: DLNHVCVISETGKAK, peptide start residue: 201) (UniProt P00492) | 0.631
GLRX3 (peptide sequence: GNKQEAKCGFSK, peptide start residue: 254) (UniProt O76003) | -0.714
ERLIN2 (peptide sequence: VAQVAEITYGQK, peptide start residue: 221) (UniProt O94905) | 0.222
UniProt O95071 (peptide sequence: VTFKDEPGEGSGVAR, peptide start residue: 2279) | 0.207
MTRF1 (peptide sequence: MQRIHTGTMSVIVLPQPDEVDVK, peptide start residue: 272) (UniProt O75570) | 0.784
YEATS4 (peptide sequence: KLEEDDQAKDI, peptide start residue: 217) (UniProt O95619) | -0.253
ATG12 (peptide sequence: AVGDTPIMK, peptide start residue: 61) (UniProt O94817) | -0.137
UniProt O95789 (peptide sequence: HSSPACLPPPPKK, peptide start residue: 124) | -0.222
POLR1A (peptide sequence: QLLTPATGAPKPQGTK, peptide start residue: 521) (UniProt O95602) | 0.303
SMNDC1 (peptide sequence: ELEQEREDQK, peptide start residue: 166) (UniProt O75940) | 0.181

Some of the entries so far, tab-delimited.
Target	log2 fold change
SKAP2 (peptide sequence: IYQFTAASPK, peptide start residue: 196) (UniProt O75563)	-0.197
HPRT1 (peptide sequence: DLNHVCVISETGKAK, peptide start residue: 201) (UniProt P00492)	0.631
GLRX3 (peptide sequence: GNKQEAKCGFSK, peptide start residue: 254) (UniProt O76003)	-0.714
ERLIN2 (peptide sequence: VAQVAEITYGQK, peptide start residue: 221) (UniProt O94905)	0.222
UniProt O95071 (peptide sequence: VTFKDEPGEGSGVAR, peptide start residue: 2279)	0.207
